The series concerns patients with chronic symptomatic heart failure and reduced ejection fraction (HF-REF). As to the kind of experiment: PARADIGM-HF randomized double-blind trial, LCZ696 versus enalapril: efficacy outcomes. The format is in vivo, human. The following applies: double-blind period. An excerpt: Patients with chronic HF, NYHA functional class II-IV symptoms, an elevated plasma B-type natriuretic peptide (BNP) or NT-proBNP level and, initially, a left ventricular ejection fraction of ≤40% (later amended to ≤35%) are eligible. […] Secondary outcome measures are change in the Kansas City Cardiomyopathy Questionnaire (KCCQ) clinical summary score at 8 months, change in renal function, and time to all-cause mortality.
The trial was designed by the academic members of the Executive Committee (EC) in collaboration with Novartis personnel.
Entry criteria: 1) age 18 years or older and able to give written informed consent 2) New York Heart Association (NYHA) functional class II-IV, 3) left ventricular ejection fraction (LVEF) ≤35% (initially this was ≤40% but changed in a protocol amendment dated Dec. […]
At the screening visit, patient eligibility was assessed according to the inclusion/exclusion criteria. […] Eligibility BNP (and NT-proBNP), serum potassium and estimated glomerular filtration rate (eGFR) were measured in a central laboratory.

As to `CCOC(=O)[C@H](CCc1ccccc1)N[C@@H](C)C(=O)N1CCC[C@H]1C(=O)O` [Enalapril, (2S)-1-[(2S)-2-{[(2S)-1-ethoxy-1-oxo-4-phenylbutan-2-yl]amino}propanoyl]-pyrrolidine-2-carboxylic acid, reference compound], the “Study drug discontinued excluding death, percent of patients” value was found to be 19.8%.
For the molecule `CCCCC(=O)N(Cc1ccc(-c2ccccc2-c2nn[n-]n2)cc1)C(C(=O)[O-])C(C)C.CCOC(=O)C(C)CC(Cc1ccc(-c2ccccc2)cc1)NC(=O)CCC(=O)[O-].[Na+].[Na+].[Na+]` [LCZ696, trisodium [3-((1S,3R)-1-biphenyl-4-ylmethyl-3-ethoxycarbonyl-1-butylcarbamoyl)propionate-(S)-3′-methyl-2′-(pentanoyl{2″-(tetrazol-5-ylate)biphenyl-4′-ylmethyl}amino)butyrate] hemipentahydrate], the “Study drug discontinued excluding death, percent of patients” value was determined as 17.8%.
